In article PMC11995678:
Results are given in words; binding and its absence hold for the method and conditions named. Some results given as binding are weak or reduced against the parent protein; the word gives no strength.

T1: human LETM1 F-EF-hand domain, wild-type (residues 643-699), Ca2+-loaded (holo) (human) (UniProt O95202)
T1 sequence (chain, uniformly 15N-labeled): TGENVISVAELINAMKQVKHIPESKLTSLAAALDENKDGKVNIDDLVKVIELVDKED


Target: T1, human LETM1 F-EF-hand domain, wild-type (residues 643-699), Ca2+-loaded (holo) (human)
Assay: NMR titration; 1H-15N HSQC of uniformly 15N-labeled holo WT LETM1 F-EF (~200 or ~110 uM) alone and mixed with excess unlabeled partner (1:2 to 1:3 molar ratio); 20 mM Tris pH 7.8, 50 mM NaCl, 30 mM CaCl2, 10 mM or 1.5 mM CHAPS, 35 °C; both purified

| binding | Binder |
| --- | --- |
| binds weakly | human LETM1 N-terminal domain construct (LETM1-NTD, residues 115-208) (domain or fragment, UniProt O95202-1 115-208) RDDSVVEKSLKSLKDKNKKLEEGGPVYSPPAEVVVKKSLGQRVLDELKHYYHGFRLLWIDTKIAARMLWRILNGHSLTRRERRQFLRICADLFR |
| binds weakly | human GHITM C-terminal domain construct (GHITM-CTD, residues 293-345) (domain or fragment, UniProt Q9H3K2 293-345) YDTQKVIKRAEVSPMYGVQKYDPINSMLSIYMDTLNIFMRVATMLATGGNRKK |
